Laboratory results reported in patent publication US20210085796A1, “ANTICANCER DRUGS AND METHODS OF MAKING AND USING SAME” (YALE UNIVERSITY, priority 2017, published 2021).
Some of these results come from one statement about several compounds together.

Tested on: MDA-MB-231 breast cancer cells
Assay: pH-dependent cell growth inhibition (CellTiter-Glo)
Type: cell-based, Human
Settings: 6 hours treatment, then 72 hours growth
Experimental: Cells treated for 6 hours at pH 7.4 (normal physiological pH, X traces) or pH 6.2 (acidic solid tumor pH, Y traces) were subsequently allowed to grow in normal growth medium for 72 hours, then cell viability was evaluated using the CellTiter-Glo assay kit (Promega). Normalized percent cell growth inhibition is plotted on the left side of each panel and IC50 values reported at each pH from non-linear regression analysis.
In order to evaluate pH-dependent activity, treatments are performed at atypical cell culture conditions. […] Several cell lines have been evaluated using this method and for each, cell seeding density and treatment duration is independently experimentally determined. Each experiment is normalized to sham and complete activity controls for each pH condition.
Human MDA-MB-231 breast cancer cells seeded at low density on tissue culture treated 384-well plates, allowed to adhere and grow in serum-supplemented growth medium for 24 hours, then treated under pH-controlled conditions for 6 hours, and finally washed and grown in fresh growth media for 72 hours were assessed for cell survival using the CellTiter-Glo assay system (Promega) (FIG. 6).

SMILES	fold lower IC50 values in cells treated at pH 6.2 than at pH 7.4 [fold]
COc1cccc2c1C(=O)c1c(O)c3c(c(O)c1C2=O)C[C@@](O)(C(=O)CO)C[C@@H]3O[C@H]1C[C@H](NC(=O)OCCSSCCCCCCCC(=O)O)[C@H](O)[C@H](C)O1 [YU241531, 8-((2-((((2S,3S,4S,6R)-3-hydroxy-2-methyl-6-(((1S,3S)-3,5,12-trihydroxy-3-(2-hydroxyacetyl)-10-methoxy-6,11-dioxo-1,2,3,4,6,11-hexahydrotetracen-1-yl)oxy)tetrahydro-2H-pyran-4-yl)carbamoyl)oxy)ethyl)disulfaneyl)octanoic acid]	7 to 12
COc1cccc2c1C(=O)c1c(O)c3c(c(O)c1C2=O)C[C@@](O)(C(=O)CO)C[C@@H]3O[C@H]1C[C@H](NC(=O)OCCSSCCCc2c(F)c(F)c(O)c(F)c2F)[C@H](O)[C@H](C)O1 [YU244206, 2-((3-(2,3,5,6-tetrafluoro-4-hydroxyphenyl)propyl)disulfaneyl)ethyl ((2S,3S,4S,6R)-3-hydroxy-2-methyl-6-(((1S,3S)-3,5,12-trihydroxy-3-(2-hydroxyacetyl)-10-methoxy-6,11-dioxo-1,2,3,4,6,11-hexahydrotetracen-1-yl)oxy)tetrahydro-2H-pyran-4-yl)carbamate]	7 to 12
